Measurements from paper PMC8384837.
Residue numbers refer to the chain shown, from its start. Some of the results follow. For some assays here: At the low end of the ranking, values are background and their order means little. For some assays here: The source does not settle which construct or isoform was used.

Legend:
Conditions in all cases: yeast three-hybrid, YBZ-1, SC-Leu-His + 0.5 mM 3-AT, 4 days
[1] = target: T1, PUM1 PUF domain R3-THE R4-TFR C935T + R936H + Q939E + N971T + H972F + Q975R (UniProt Q14671)
T1 sequence: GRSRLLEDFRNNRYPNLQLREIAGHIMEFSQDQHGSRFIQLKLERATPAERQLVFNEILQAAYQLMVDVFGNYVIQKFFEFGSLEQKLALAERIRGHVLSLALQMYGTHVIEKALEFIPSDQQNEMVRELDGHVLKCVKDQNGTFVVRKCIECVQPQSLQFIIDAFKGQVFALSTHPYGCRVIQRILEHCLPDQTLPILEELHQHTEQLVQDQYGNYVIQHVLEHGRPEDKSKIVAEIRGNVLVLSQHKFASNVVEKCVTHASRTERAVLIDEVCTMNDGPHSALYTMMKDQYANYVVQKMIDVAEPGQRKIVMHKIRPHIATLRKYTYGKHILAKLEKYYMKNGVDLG

[2] = target: T2, PUM1 PUF domain R5-PHQ R6-SWD C1007P + R1008H + N1043S + Y1044W + Q1047D (UniProt Q14671)
T2 sequence: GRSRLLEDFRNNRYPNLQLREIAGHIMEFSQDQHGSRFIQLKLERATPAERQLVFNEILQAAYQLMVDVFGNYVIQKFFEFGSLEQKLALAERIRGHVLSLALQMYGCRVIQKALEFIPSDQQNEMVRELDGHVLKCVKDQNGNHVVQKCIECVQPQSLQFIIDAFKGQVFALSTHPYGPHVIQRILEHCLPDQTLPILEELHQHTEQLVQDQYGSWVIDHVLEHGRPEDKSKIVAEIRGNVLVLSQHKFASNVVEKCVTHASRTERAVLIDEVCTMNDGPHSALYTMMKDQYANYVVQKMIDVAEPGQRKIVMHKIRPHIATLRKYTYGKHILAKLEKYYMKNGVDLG

[3] = target: T3, PUM1 PUF domain R3-THE R4-TFR R7-NPG C935T + R936H + Q939E + N971T + H972F + Q975R + S1079N + N1080P + E1083G (UniProt Q14671)
T3 sequence: T1 sequence with S252N, N253P, E256G

[4] = target: T4, PUM1 PUF domain R6-SWD R7-NPG N1043S + Y1044W + Q1047D + S1079N + N1080P + E1083G (Homo sapiens) (UniProt Q14671)
T4 sequence: T2 sequence with P180C, H181R, S252N, N253P, E256G

Row | Sequence | binding signal (log2 enrichment (interaction score)) [1] | binding signal (log2 enrichment (interaction score)) [2] | binding signal (log2 enrichment (interaction score)) [3] | binding signal (log2 enrichment (interaction score)) [4]
1 | GGCUAGAACUAGUGGAUCCCCCGGCGCCCGGCGGCUCGAGCCCGGGUAAGUAGCAGUAGUCUGCAUGCCGCCGGGCGCCAUGCCUGCAGGUCGACUCUAGAAAACAUG | -7.37 | -7.9 |  | 
2 | GGCUAGAACUAGUGGAUCCCCCGGCGCCCGGCGGCUCGAGCCCGGGUAAGUGAAUGAAGUCUGCAUGCCGCCGGGCGCCAUGCCUGCAGGUCGACUCUAGAAAACAUG | -6.19 | < -6.56 | < -2.06 | -1.89
3 | GGCUAGAACUAGUGGAUCCCCCGGCGCCCGGCGGCUCGAGCCCGGGUAAGUAAACGUAGUCUGCAUGCCGCCGGGCGCCAUGCCUGCAGGUCGACUCUAGAAAACAUG | -7.84 | < -7.82 |  | 
4 | GGCUAGAACUAGUGGAUCCCCCGGCGCCCGGCGGCUCGAGCCCGGGUAAGGGUAAGUCGUCUGCAUGCCGCCGGGCGCCAUGCCUGCAGGUCGACUCUAGAAAACAUG | -6.48 | < -8.01 | -2.38 | 
5 | GGCUAGAACUAGUGGAUCCCCCGGCGCCCGGCGGCUCGAGCCCGGGUAAGUGGAGGAAGUCUGCAUGCCGCCGGGCGCCAUGCCUGCAGGUCGACUCUAGAAAACAUG | -6.71 | < -7.58 |  | 
6 | GGCUAGAACUAGUGGAUCCCCCGGCGCCCGGCGGCUCGAGCCCGGGUAAGUCGACGUAGUCUGCAUGCCGCCGGGCGCCAUGCCUGCAGGUCGACUCUAGAAAACAUG | < -7.17 | < -7 | -2.94 | 
7 | GGCUAGAACUAGUGGAUCCCCCGGCGCCCGGCGGCUCGAGCCCGGGUAAGUCGAACUAGUCUGCAUGCCGCCGGGCGCCAUGCCUGCAGGUCGACUCUAGAAAACAUG | -6.14 | < -8.28 |  | 
8 | GGCUAGAACUAGUGGAUCCCCCGGCGCCCGGCGGCUCGAGCCCGGGUAAGCGGAACAAGUCUGCAUGCCGCCGGGCGCCAUGCCUGCAGGUCGACUCUAGAAAACAUG | < -7.56 | -7.42 |  | 
9 | GGCUAGAACUAGUGGAUCCCCCGGCGCCCGGCGGCUCGAGCCCGGGUAAGUGAACAAAGUCUGCAUGCCGCCGGGCGCCAUGCCUGCAGGUCGACUCUAGAAAACAUG | -6.87 | -7.91 |  | 
10 | GGCUAGAACUAGUGGAUCCCCCGGCGCCCGGCGGCUCGAGCCCGGGUAAGUUGUCGUAGUCUGCAUGCCGCCGGGCGCCAUGCCUGCAGGUCGACUCUAGAAAACAUG | -7.01 | -8.84 |  | 
11 | GGCUAGAACUAGUGGAUCCCCCGGCGCCCGGCGGCUCGAGCCCGGGUAAGUGGCACAAGUCUGCAUGCCGCCGGGCGCCAUGCCUGCAGGUCGACUCUAGAAAACAUG | -6.37 | < -7.14 | -3.3 | 
12 | GGCUAGAACUAGUGGAUCCCCCGGCGCCCGGCGGCUCGAGCCCGGGUAAGUGUGACUCGUCUGCAUGCCGCCGGGCGCCAUGCCUGCAGGUCGACUCUAGAAAACAUG | -7.19 | < -8.08 |  | 
13 | GGCUAGAACUAGUGGAUCCCCCGGCGCCCGGCGGCUCGAGCCCGGGUAAGUGGGCUUUGUCUGCAUGCCGCCGGGCGCCAUGCCUGCAGGUCGACUCUAGAAAACAUG | -7.67 | < -7.87 |  | 
14 | GGCUAGAACUAGUGGAUCCCCCGGCGCCCGGCGGCUCGAGCCCGGGUAAGUGAAUACUGUCUGCAUGCCGCCGGGCGCCAUGCCUGCAGGUCGACUCUAGAAAACAUG | < -6.97 | -8.47 |  | 
15 | GGCUAGAACUAGUGGAUCCCCCGGCGCCCGGCGGCUCGAGCCCGGGUAAGAGUAAGUGGUCUGCAUGCCGCCGGGCGCCAUGCCUGCAGGUCGACUCUAGAAAACAUG | -6.96 | < -7.59 |  | 
16 | GGCUAGAACUAGUGGAUCCCCCGGCGCCCGGCGGCUCGAGCCCGGGUAAGUGAAUACAGUCUGCAUGCCGCCGGGCGCCAUGCCUGCAGGUCGACUCUAGAAAACAUG | -7.03 | -7.61 | < -2.25 | 

Another view of some results above:
Row	Sequence	binding signal (log2 enrichment (interaction score)) [1]	binding signal (log2 enrichment (interaction score)) [2]	binding signal (log2 enrichment (interaction score)) [3]	binding signal (log2 enrichment (interaction score)) [4]
2	GGCUAGAACUAGUGGAUCCCCCGGCGCCCGGCGGCUCGAGCCCGGGUAAGUGAAUGAAGUCUGCAUGCCGCCGGGCGCCAUGCCUGCAGGUCGACUCUAGAAAACAUG	-6.19	< -6.56	< -2.06	-1.89
15	GGCUAGAACUAGUGGAUCCCCCGGCGCCCGGCGGCUCGAGCCCGGGUAAGAGUAAGUGGUCUGCAUGCCGCCGGGCGCCAUGCCUGCAGGUCGACUCUAGAAAACAUG	-6.96	< -7.59		
